Experimental data from US6887903B1, “N-(2-aryl-propionyl)-sulfonamides and pharmaceutical preparations containing them” (Dompe S.p.A., priority 1998, dated 2005).
Some entries share one result that the patent states for a list of compounds. For at least one compound, name, drawing or mass did not settle the structure.

Test system: PMN human leukocytes stimulated by interleukin 8
Assay: Chemotaxis of human PMN induced by IL-8
Type: cell-based
Conditions: IL-8 10 ng/mL
Experimental: The compounds of the invention were studied using PMN cells obtained by sedimentation of heparinized blood from healthy volunteers on dextran; the mononuclear cells were removed by means of Ficoll/Hypaque whereas erythrocytes were removed by treatment with hypotonic solutions. Cell viability of PMN leukocytes was calculated by exclusion with Turk and Trypan Blue, while the percentage of PM-nucleates on the cytocentrifugate was evaluated upon staining with Diff Quinck (W. J. Ming et al., J. Immunol., 138, 1469, 1987).
In each of the “in vitro” tests subsequently described, PMN were incubated with the compounds of the invention for 10 minutes at a temperature of 37° C.
In the chemotaxis tests and in those for evaluating cytosol levels of the Ca^2+ ion, human recombinant IL-8 (Pepro Tech.) was used as stimulating agent: the freeze-dried protein was dissolved in HBSS (Hank's balanced salts solution) at a concentration of 100 ng/mL and was used after dilution in HBSS to concentrations of 10 ng/mL in the chemotaxis tests and of 25-50 ng/mL in the evaluation of [Ca^2+]i cell modifications.
In the chemotaxis test (according to W. Falket et al., J. Immunol. Methods, 33, 239, 1980) PVP filters of […] porosity and a plexigas microcamera suitable to perform 48 replications were used. […]

SMILES	IC50 of IL-8-induced chemotaxis of PMN human leukocytes
CC(C)Cc1ccc([C@@H](C)C(=O)NS(C)(=O)=O)cc1 [DF 1681, R(−)-N-[2-(4-Isobutylphenyl)propionyl]-methanesulfonamide]	10^−7 to 10^−8 M
CC(C)Cc1ccc([C@H](C)C(=O)NS(C)(=O)=O)cc1 [S(+)-N-[2-(4-Isobutylphenyl)propionyl]-methanesulfonamide]	10^−7 to 10^−8 M
